Source: ChEMBL document CHEMBL3988442, “University of Dundee, Small-Polar-MMV Screening Library” (2021).

The filed quantity is “Percent Effect” (%).
The controls that fix the scale are not given in the record; negative values are as filed.
The compounds are a random part of those screened.

Mtb growth Cornell: 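Whole-cell assay for inhibitors of Mycobacterium tuberculosis growth, labelled Cornell in the record; the read-out is not stated. The concentration is filed as 10 mM, unlikely as a test dose, so the dose is not known. The record gives no direction; compounds strong in two other growth screens of this library score well above the rest, so higher reads as stronger inhibition. About 53,000 compounds were tested under these conditions; 1.7% (about 900) showed 50% or more at least once.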
Mtb heat-shock: 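Assay on Mycobacterium tuberculosis, filed only as a heat shock assay from Cornell; the read-out is not stated. The concentration is filed as 10 mM, unlikely as a test dose, so the dose is not known. The record gives no direction; compounds that gave an IC50 in retests scored well above the rest, so higher reads as stronger inhibition. Of about 69,000 compounds tested this way, about 930 (1.4%) reached 50% or more in at least one test.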

{"structure": "Cc1cccc(C(=O)N2CCc3c(COCC4CC4)cncc3C2)n1", "Mtb growth Cornell": 11.11, "Mtb heat-shock": -4.428}
{"structure": "CSc1nccc(NCc2cc3n(n2)CCCN(S(C)(=O)=O)C3)n1", "Mtb heat-shock": -2.088}
{"structure": "Cc1nc2c(c(N3CCN(Cc4ccco4)CC3)n1)CCNCC2", "Mtb growth Cornell": 26.48, "Mtb heat-shock": -26.76}
{"structure": "Cn1c(N)nnc1SCc1ccc(Cl)cc1Br", "Mtb growth Cornell": 7.922, "Mtb heat-shock": -44.28}
{"structure": "CC(C)c1nc(CSc2nnc(Cn3cncn3)o2)cs1", "Mtb growth Cornell": -9.354, "Mtb heat-shock": 3.305}
{"structure": "CCOc1cncc(N(C)CC(=O)NC)n1", "Mtb growth Cornell": -20.46, "Mtb heat-shock": -7.678}
{"structure": "CCCN(Cc1cccnc1)C(=O)C1CCS(=O)(=O)CC1", "Mtb growth Cornell": -19.41, "Mtb heat-shock": -16.86}
{"structure": "COc1cccc(OCC(=O)NS(=O)(=O)c2ccc(C)s2)c1", "Mtb growth Cornell": -10.66, "Mtb heat-shock": 11.62}
{"structure": "O=C(O)C(F)(F)F.O=C(O)C(F)(F)F.[H][C@@]12CCN(Cc3ccc(C)s3)C[C@]1([H])[C@@H](CN(C)Cc1ccco1)OC2", "Mtb growth Cornell": -44.52, "Mtb heat-shock": -32.81}
{"structure": "[H][C@@]12CCCC[C@]1(O)CCN(C(C)=O)[C@H]2c1ccccc1", "Mtb growth Cornell": -30.1, "Mtb heat-shock": 5.705}
{"structure": "CCN(CC)C(=O)[C@@H]1C[C@H](n2cc(-c3cccc(OC)c3)nn2)CN1", "Mtb growth Cornell": 15.54, "Mtb heat-shock": -4.127}
{"structure": "Fc1cccc(CNc2cncc(-n3cccn3)n2)c1", "Mtb growth Cornell": 40.17, "Mtb heat-shock": 18.33}
{"structure": "CC(C)n1nc(CN2CCCC2=O)c2c1CN(C(=O)c1ccco1)C2", "Mtb growth Cornell": 20.09, "Mtb heat-shock": 7.01}
{"structure": "Fc1ccc(C2CCCN2Cc2nnnn2C2CC2)cc1", "stereo": "centres undefined", "Mtb growth Cornell": -22.59, "Mtb heat-shock": -7.978}
{"structure": "O=C(O)c1cc(S(=O)(=O)N2CCOc3ccccc32)ccc1Br", "Mtb heat-shock": 11.19}
{"structure": "CN(C)CC(=O)N1CCC2(CC1)CN(Cc1ccccc1)C2", "Mtb growth Cornell": -23.04, "Mtb heat-shock": -22.4}
{"structure": "COCC1CC2(CCN(Cc3ccoc3)CC2)CN1C(C)C.O=C(O)C(F)(F)F.O=C(O)C(F)(F)F", "stereo": "centres undefined", "Mtb growth Cornell": 14.55, "Mtb heat-shock": -30.85}
{"structure": "COCCC(=O)NC[C@H]1CC[C@H](C(c2ccccn2)N(C)C)CC1", "stereo": "some centres undefined", "Mtb growth Cornell": 18.85, "Mtb heat-shock": -15.3}
{"structure": "Cc1cnc(C(=O)N2CCc3c(nc(-c4ccncc4)[nH]c3=O)C2)cn1", "Mtb growth Cornell": 3.549, "Mtb heat-shock": -38.2}
{"structure": "CCN(CC)c1ccc(CNS(=O)(=O)C2CCOCC2)cc1F", "Mtb growth Cornell": 15.8, "Mtb heat-shock": -19.41}
{"structure": "CN1CCOC(CNCc2coc(-c3ccccc3Cl)n2)C1", "stereo": "centres undefined", "Mtb growth Cornell": -9.293, "Mtb heat-shock": -20.14}
{"structure": "Cn1nc(CN2CCC(c3ccncc3)CC2)c2c(Cl)cccc21", "Mtb growth Cornell": 13.56, "Mtb heat-shock": 0.8136}
{"structure": "COc1ccccc1-c1cc(C(=O)N(C)C)nc2c1cnn2C", "Mtb heat-shock": 1.702}
{"structure": "CNC(=O)CCc1cc(C)nc(C2CCCN2)n1", "stereo": "centres undefined", "Mtb growth Cornell": 5.87, "Mtb heat-shock": 9.757}
{"structure": "FC(F)(F)c1cc(C2CCCN(Cc3ccncc3)C2)n[nH]1", "stereo": "centres undefined", "Mtb heat-shock": -21.27}
{"structure": "O=C(O)C(F)(F)F.O=C(O)C(F)(F)F.O=C(O)C(F)(F)F.[H][C@@]12CCCO[C@]1([H])[C@H](N(C)Cc1cccnc1)CN2CC1CC1", "Mtb growth Cornell": 23.98, "Mtb heat-shock": 0.0393}
{"structure": "CN(C)CC(=O)N1CCc2ncnc(-c3ccsc3)c2CC1", "Mtb growth Cornell": 13.99, "Mtb heat-shock": -15.02}
{"structure": "Cc1cnc(CN2CCC(N(C)Cc3nnc(C4CC4)n3C)C2)cn1", "stereo": "centres undefined", "Mtb growth Cornell": 8.133, "Mtb heat-shock": 3.776}
{"structure": "Cc1nnc(CN2CCN(C)C3(CCC(=O)N(CCO)CC3)C2)s1", "stereo": "centres undefined", "Mtb growth Cornell": -20, "Mtb heat-shock": -2.29}
{"structure": "CC(C)[C@@H]1CN(S(=O)(=O)Cc2ccccc2)C[C@H]1NS(=O)(=O)N(C)C", "Mtb heat-shock": -26.17}
{"structure": "CN(Cc1ccc2c(c1)OCCO2)Cc1nnnn1-c1ccccc1", "Mtb growth Cornell": 17.65, "Mtb heat-shock": -20.5}
{"structure": "Cc1nc(NCC2CCOCC2)cc(C2CCN2S(C)(=O)=O)n1", "stereo": "centres undefined", "Mtb growth Cornell": 10.58, "Mtb heat-shock": -11.73}
{"structure": "CCc1cc(CN(Cc2cccnc2)C2CN3CCC2CC3)on1", "stereo": "centres undefined", "Mtb growth Cornell": -39.88, "Mtb heat-shock": -13.86}
{"structure": "O=C(c1cnc(COc2ccccc2)nc1O)N1CCC(F)(F)CC1", "Mtb growth Cornell": 24.21, "Mtb heat-shock": 2.837}
{"structure": "Cc1nn(C)c(Oc2ccc(Cl)cc2)c1CN1CCOC(CN)C1", "stereo": "centres undefined", "Mtb growth Cornell": 8.772, "Mtb heat-shock": -8.375}
{"structure": "CC(C)(O)CN1CCN(C(=O)c2ccc3c(c2)COC3)CC1", "Mtb heat-shock": 0.4017}
{"structure": "COCC(O)CN1CCC(NC(=O)c2ccccc2Cl)CC1", "stereo": "centres undefined", "Mtb growth Cornell": -39.95, "Mtb heat-shock": 5.539}
{"structure": "CN(C)CC1CSCCCN1C(=O)c1ccc(-c2ccccc2)cc1", "stereo": "centres undefined", "Mtb heat-shock": -1.804}
{"structure": "Cc1ccnn1CCC(=O)N1C[C@@H](O)[C@H](Oc2cccc(F)c2)C1", "Mtb growth Cornell": -9.046, "Mtb heat-shock": -2.164}
{"structure": "COCCN(CCOC)C(=O)c1ccn(-c2ccc3ccccn23)n1", "Mtb growth Cornell": 38.82, "Mtb heat-shock": -16.28}

The last 4 entries again:

- COCC(O)CN1CCC(NC(=O)c2ccccc2Cl)CC1 (centres undefined) | Mtb growth Cornell: -39.95%; Mtb heat-shock: 5.539%
- CN(C)CC1CSCCCN1C(=O)c1ccc(-c2ccccc2)cc1 (centres undefined) | Mtb heat-shock: -1.804%
- Cc1ccnn1CCC(=O)N1C[C@@H](O)[C@H](Oc2cccc(F)c2)C1 | Mtb growth Cornell: -9.046%; Mtb heat-shock: -2.164%
- COCCN(CCOC)C(=O)c1ccn(-c2ccc3ccccn23)n1 | Mtb growth Cornell: 38.82%; Mtb heat-shock: -16.28%